# Assay results: article PMC10163288
# The list shows a part of the results.
# B1: il10ra_site1_sap_25_mot_HHH_b1_04275_000000150_0001_22_39_H_._HHH_b1_04907_0001_0000300014_0000001_0_0001_af2pred_0001 (protein)
# chain: SSSSSSDLSEEVVRLLREALEIDDPEEAREVAEQALELAEEGNNPELVFIARFLLRQLSSSSSSS
# B2: il10ra_site1_normal_mot_HHH_b2_05944_000000135_0001_38_52_H_._HHH_b2_04207_0001_0000100002_0000001_0_af2pred_dldesign_0_af2pred (protein)
# chain: SSSSSKAQELAENTLHAIKVLLEEGKPEEAKATYEYYKKVLEALGDPEALKYLDEEYAKLLSSSS
# B3: il10ra_site1_normal_mot_HHH_b1_01011_000000096_0001_1_19_H_._HHH_b2_02684_af2_0001_0000300011_0000001_0 (protein)
# chain: SSSSDEELEEYTRLAERFAEALYKSGDPEAARLLLRNLLQALKRLGDEELFERAEELLEELSSSS
# B4: il10ra_site1_normal_mot_HHH_b1_08477_000000091_0001_40_57_H_._HHH_b1_05558_0001_0000500062_0000002_0 (protein)
# chain: SSSSSRVEQAFKFAEALLKDGDPEAAHRIARIALELAEKEGDEELEELLRRLLEEIEEELGSSSS
# B5: il10ra_site1_normal_mot_HHH_b2_05813_000000266_0001_1_19_H_._HHH_b1_02254_0001_0000100009_0000001_0 (protein)
# chain: SSSSSDEEERVFQLLVRLQFLLDKGDEEQLRELLEEAKELAEELNDPVLRRAIEIIEELGSSSSS
# B6: il10ra_site1_sap_19_mot_HHH_b1_06837_000000150_0001_20_37_H_._HHH_b2_00783_0001_0000100016_0000001_0_0001 (protein)
# chain: SSSSDERHEALRLAAEALRAAYQKSDEEALQALWRLIRRLAREGDPELVRELEELAEEIINSSSS
# B7: il10ra_site1_sap_26_mot_HHH_b1_03260_000000175_0001_42_57_H_._HHH_b1_06337_af2_0001_0000500021_0000001_0_0001 (protein)
# chain: SSSSDEEAYEIIKRLARLLIRGNLEEAQELLEELKELAEELNDPALKRAVEIIQRAIEANSSSSS
# B8: il10ra_site1_normal_mot_HHH_b2_08144_af2_000000046_0001_38_52_H_._HHH_b2_07064_af2_0001_0000600024_0000001_0 (protein)
# chain: SSSSDEEVQEVYELSRRAAELHHDGNKEEAEELLERARELAKELNNPLLLIQVEFLLRLASSSSS
# B9: il10ra_site1_normal_mot_ems_3hM_2400_000000184_0001_1_19_H_._HHH_b2_03037_0001_0000100006_0000001_0 (protein)
# chain: SSSSDEEEREEVEEILEEAKHIEDEHERAQVLFEAFRRAWEIRDPEAVQLVLRVAARLLDSSSSS
# B10: il10ra_site1_sap_25_mot_HHH_b1_01011_000000096_0001_1_19_H_._HHH_b2_01824_af2_0001_0000200005_0000001_1_0001 (protein)
# chain: SSSSDAEHYVRAALRFARALYEAGDPEAARRILRAVIEALRRLGDEEAVEKAEELLEEIEKSSSS
# B11: il10ra_site1_sap_9_mot_HHH_b2_03438_af2_000000049_0001_18_34_H_._HHH_b2_07904_0001_0000200033_0000002_0_0001 (protein)
# chain: SSSSDVEELYRLLKEINEAVREGDEELFRKLVEELEELIEELGSMLFRIQLEFLERQWKEGSSSS
# B12: il10ra_site1_sap_18_mot_HHH_b1_04818_af2_000000063_0001_42_55_H_._HHH_b1_04225_af2_0002_0000100001_0000002_0_0001_af2pred_0001 (protein)
# chain: SSSSSRTQEVAELMREALELLNNGDKEEAERVAREALELAEQLNNEVLRIVAEYLERIIGSSSSS
# B13: il10ra_site1_sap_17_mot_HHH_b2_05410_000000077_0001_20_37_H_._HHH_b2_08251_af2_0001_0000300013_0000001_0_0001_af2pred_0001 (protein)
# chain: SSSSDDEAFEIILRALALARQLNDPETEERLRELARRYLEEGDERLLEEVEELLEELKERSSSSS
# B14: il10ra_site1_sap_12_mot_ems_3hM_235_000000244_0001_46_64_H_._HHH_b2_07427_af2_0001_0000200015_0000001_0_0001 (protein)
# chain: SSSSSSDLEELLEEIEEAIEEGDEEKAKELIQEALRLAFQNSDEEVLRRVWELAKELASSSSSSS
# B15: il10ra_site1_normal_mot_HHH_b2_02337_000000026_0001_38_52_H_._HHH_b2_02790_0001_0000300024_0000001_0 (protein)
# chain: SSSSDVEERAQELLEEAEELLKEGDREEFLEVVLEAVRLAHRARDEEILQALWRLVRELRSSSSS
# B16: il10ra_site1_normal_mot_HHH_b1_06788_af2_000000238_0001_19_36_H_._HHH_b2_03036_0001_0000200010_0000002_0_af2pred_0001 (protein)
# chain: SSSSSEYVKEVEKLLRRVAQLLREGDEEEAKELLKEAREIAEEAGNPILRVIVEFLLRILESSSS
# B17: il10ra_site1_sap_18_mot_1cde5897893f3d1588f92be3b001cdf2_0001_af2_000000130_0001_54_65_H_._HHH_b2_02470_af2_0001_0000100008_0000001_0_0001 (protein)
# chain: SSSSSSDLARRAYELLREALEIEDEEEREEVLEEAKRLAEEGNNLVLLWAIRYAAERDSSSSSSS
# B18: il10ra_site1_normal_mot_HHH_b1_02997_000000220_0001_39_52_H_._HHH_b1_05859_0001_0000100005_0000001_0 (protein)
# chain: SSSSDLSHELYELLHEAAELLFNGNPEEAEEVVQEAIELARELGNENALYNAEYLLRQIESSSSS
# Molecular target: il10ra, Q13651
# Test: yeast display titration
row,Binder,apparent Kd
1,B1,inactive: no binding seen
2,B2,inactive: no binding seen
3,B3,inactive: no binding seen
4,B4,inactive: no binding seen
5,B5,inactive: no binding seen
6,B6,inactive: no binding seen
7,B7,inactive: no binding seen
8,B8,inactive: no binding seen
9,B9,inactive: no binding seen
10,B10,inactive: no binding seen
11,B11,inactive: no binding seen
12,B12,inactive: no binding seen
13,B13,inactive: no binding seen
14,B14,inactive: no binding seen
15,B15,inactive: no binding seen
16,B16,inactive: no binding seen
17,B17,inactive: no binding seen
18,B18,inactive: no binding seen

# From no. 12 as far as 13, copied from above:
row,Binder,apparent Kd
12,B12,inactive: no binding seen
13,B13,inactive: no binding seen
